From patent EP2246037A2, “Anti-aging and whitening properties of quercetin, 18a-glycyrrhetinic acid, hederagenin and its derivatives” (Korres S.A. Natural Products, priority 2009, dated 2010)
Some results were stated once for a whole list of compounds, not compound by compound.

System: tyrosinase
Test: Immunoblot of tyrosinase expression in melanocytes
Type: cell-based, Mouse
Settings: summary of section B, concentration not given
Description: The steps, methods and results that were obtained regarding the whitening properties of the examined substances are the following: • A) Cellular whitening of melanocytes. • A.1. Mouse melanocytes (B10F16 cell line) were used in in vitro conditions (growth at 37°C, 5% CO2 and 95% humidity). • A.2. The cells were maintained in Dulbecco's modified Eagle's medium (DMEM®; Invitrogen Life Technologies Inc.) supplemented with 10% (v/v) fetal calf serum, 100 Units/ml penicillin, 100 µg/ml strepromycin, 2 mM glutamine and 1% (v/v) non-essential amino acids (complete medium). • A.3. 10^5 cells were seeded in petri dishes and the following day they were fed with medium supplemented with the substances [final concentration for all substances: 5 µg/ml and 10 µg/ml]. Quercetin (QUER), 18α-glycyrrhetinic acid (18α GA) and hederagenin (HED) were diluted in DMSO whereas quercetin caprylate was diluted in caprilic/capric triglycerides (CAP). Therefore, the control cultures were incubated in medium supplemented with 0.1% DMSO or 0.1% CAP. The media were replenished every 24 h and the cells were kept under these conditions constantly for 72 h. Cells were then collected and pelleted and the cell pellet was photographed. • A.4. […] Protein concentrations were determined using the Bradford method with BSA as a standard. • B.2. […]

SMILES | protein expression levels of tyrosinase
CC1(C)[C@@H](O)CC[C@]2(C)[C@H]3C(=O)C=C4[C@H]5C[C@@](C)(C(=O)O)CC[C@]5(C)CC[C@@]4(C)[C@]3(C)CC[C@@H]12 [18α-glycyrrhetinic acid] | decrease
CC1(C)CC[C@]2(C(=O)O)CC[C@]3(C)C(=CC[C@@H]4[C@@]5(C)CC[C@H](O)[C@@](C)(CO)[C@@H]5CC[C@]43C)[C@@H]2C1 [Hederagenin] | decrease
